Source: publication PMC2680019
Results are given in words; binding and its absence hold for the method and conditions named. In cells and extracts the contact can be indirect. For some of these results: Binding calls can cover weak binding; strength is not graded here. Where a sequence is shown, tags or fusion partners need not be part of it.

What was measured:
[1] = molecular target: T1, Myc-tagged Tensin2 1-1272 (ΔPTB) (UniProt Q63HR2); test: co-IP; HEK293T co-transfected with Myc-tagged tensin and FLAG-tagged DLC1 (or GFP-tagged DLC2); cleared lysate in NET-N buffer (25 mM Tris-HCl pH 8.0, 50 mM NaCl, 0.2 mM EDTA, 0.1% NP40); anti-Myc antibody overnight at 4°C, protein-A sepharose, 5 washes; blot with anti-FLAG (anti-GFP for DLC2)
T1 sequence: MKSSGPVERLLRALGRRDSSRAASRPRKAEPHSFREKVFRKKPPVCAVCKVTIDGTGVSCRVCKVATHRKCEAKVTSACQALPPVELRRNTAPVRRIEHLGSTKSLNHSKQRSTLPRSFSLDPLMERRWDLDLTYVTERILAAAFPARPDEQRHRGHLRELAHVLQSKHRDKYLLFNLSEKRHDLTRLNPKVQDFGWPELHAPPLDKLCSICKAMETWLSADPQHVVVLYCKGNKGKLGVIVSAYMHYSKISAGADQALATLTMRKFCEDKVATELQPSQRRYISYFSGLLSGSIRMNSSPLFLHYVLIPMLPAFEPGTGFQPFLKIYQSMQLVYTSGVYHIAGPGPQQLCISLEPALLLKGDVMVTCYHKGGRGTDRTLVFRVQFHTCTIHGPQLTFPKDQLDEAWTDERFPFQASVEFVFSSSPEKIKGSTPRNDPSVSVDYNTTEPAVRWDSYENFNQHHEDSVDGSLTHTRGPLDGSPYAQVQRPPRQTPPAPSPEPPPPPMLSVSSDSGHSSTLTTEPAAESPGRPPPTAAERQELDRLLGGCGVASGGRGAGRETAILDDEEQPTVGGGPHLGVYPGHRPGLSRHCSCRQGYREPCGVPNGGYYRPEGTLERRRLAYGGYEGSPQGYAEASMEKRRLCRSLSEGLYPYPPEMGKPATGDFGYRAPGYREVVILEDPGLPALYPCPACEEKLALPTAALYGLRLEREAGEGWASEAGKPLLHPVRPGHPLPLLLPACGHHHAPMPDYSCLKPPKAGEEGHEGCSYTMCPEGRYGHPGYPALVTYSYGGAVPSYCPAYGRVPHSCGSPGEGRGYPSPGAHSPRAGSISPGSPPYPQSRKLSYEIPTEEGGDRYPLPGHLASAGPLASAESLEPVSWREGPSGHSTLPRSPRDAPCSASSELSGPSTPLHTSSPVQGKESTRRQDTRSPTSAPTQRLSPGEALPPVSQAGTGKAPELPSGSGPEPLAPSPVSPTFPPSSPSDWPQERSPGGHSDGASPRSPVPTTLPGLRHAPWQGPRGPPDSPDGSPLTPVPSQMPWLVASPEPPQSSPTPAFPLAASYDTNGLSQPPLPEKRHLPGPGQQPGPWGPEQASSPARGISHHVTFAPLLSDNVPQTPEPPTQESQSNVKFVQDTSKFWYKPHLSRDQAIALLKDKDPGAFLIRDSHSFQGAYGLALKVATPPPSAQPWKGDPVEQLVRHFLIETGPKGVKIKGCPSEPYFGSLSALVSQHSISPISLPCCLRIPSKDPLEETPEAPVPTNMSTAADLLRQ

[2] = molecular target: T2, Myc-tagged Tensin2 Δ1022-1272 (ΔSH2) (UniProt Q63HR2); test: as above
T2 sequence: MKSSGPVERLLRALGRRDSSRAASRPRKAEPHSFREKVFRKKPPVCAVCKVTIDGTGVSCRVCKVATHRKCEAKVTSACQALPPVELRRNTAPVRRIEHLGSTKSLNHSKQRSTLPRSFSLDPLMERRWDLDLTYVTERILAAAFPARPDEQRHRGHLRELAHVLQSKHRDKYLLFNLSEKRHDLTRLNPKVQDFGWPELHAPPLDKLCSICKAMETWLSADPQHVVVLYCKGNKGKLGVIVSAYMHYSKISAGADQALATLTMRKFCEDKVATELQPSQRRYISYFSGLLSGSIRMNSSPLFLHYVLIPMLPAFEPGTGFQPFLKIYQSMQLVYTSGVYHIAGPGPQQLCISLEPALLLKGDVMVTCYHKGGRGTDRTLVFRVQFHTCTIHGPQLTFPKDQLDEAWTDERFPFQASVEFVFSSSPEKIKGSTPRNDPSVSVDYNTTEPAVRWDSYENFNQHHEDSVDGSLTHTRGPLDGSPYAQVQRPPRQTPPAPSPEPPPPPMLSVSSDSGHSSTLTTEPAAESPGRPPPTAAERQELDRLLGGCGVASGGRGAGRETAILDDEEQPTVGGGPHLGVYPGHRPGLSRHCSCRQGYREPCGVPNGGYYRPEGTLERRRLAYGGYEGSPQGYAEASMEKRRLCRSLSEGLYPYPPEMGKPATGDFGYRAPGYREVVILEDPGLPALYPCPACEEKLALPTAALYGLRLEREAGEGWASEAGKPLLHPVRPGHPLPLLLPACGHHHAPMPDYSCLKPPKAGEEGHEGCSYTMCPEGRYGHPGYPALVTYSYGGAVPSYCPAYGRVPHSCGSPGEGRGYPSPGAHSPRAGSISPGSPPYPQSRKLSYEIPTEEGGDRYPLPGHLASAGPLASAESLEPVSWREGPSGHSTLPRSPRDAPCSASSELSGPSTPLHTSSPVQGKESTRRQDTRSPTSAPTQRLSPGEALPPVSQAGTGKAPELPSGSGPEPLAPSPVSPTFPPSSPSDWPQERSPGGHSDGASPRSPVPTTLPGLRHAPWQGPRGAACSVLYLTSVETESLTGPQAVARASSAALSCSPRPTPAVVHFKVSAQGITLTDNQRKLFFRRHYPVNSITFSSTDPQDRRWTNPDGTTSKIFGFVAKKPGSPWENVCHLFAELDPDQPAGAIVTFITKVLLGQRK

FLAG-tagged DLC1 1-400 (from UniProt Q96QB1-1) (domain or fragment)
binding [1]: no binding | binding [2]: binds

FLAG-tagged DLC1 FL (Deleted in liver cancer 1, wild-type) (from UniProt Q96QB1-1)
binding [1]: no binding | binding [2]: binds
